Where a name gives a salt, the structure may show the parent alone. This is one part of the list. Repeats in this data set agree poorly, so a single value says little.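 The human kidney-derived cells carry a stably integrated construct of eight TEAD-binding elements driving luciferase, read by luminescence in a drug-repurposing library screen. A compound counts as a hit when its signal is more than five robust Z scores above the plate mean.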
System: HEK293A TEAD-LUC reporter
Test: TEAD-luciferase reporter activity (YAP activation), robust Z score vs plate; higher = stronger YAP/TEAD activation
Settings: 24 h

Structure (SMILES)	TEAD-luciferase reporter activity (compound concentration: 200 nM)	TEAD-luciferase reporter activity (compound concentration: 2 uM)	TEAD-luciferase reporter activity (compound concentration: 10 uM)
OC[C@@H]1O[C@@H](OC[C@@H]2O[C@@H](O[C@@H]3[C@H](O)[C@@H](CO)OC(O)[C@@H]3O)[C@@H](O)[C@H](O[C@@H]3O[C@@H](CO)[C@H](O)[C@@H](O)[C@@H]3O)[C@H]2O)[C@@H](O)[C@H](O)[C@H]1O (some centres not stated)	inactive: -1.22	inactive: -0.291	inactive: 0.313
CC(C)(C(=O)c1cccnc1)c1cccnc1	inactive: -2.59	–	inactive: 0.26
CC(C)(C(=O)c1cccnc1)c1cccnc1 [Metyrapone]	–	inactive: -0.46	–
CC(C)CC(=O)Nc1cncc(-c2ccc3[nH]nc(-c4nc5c(-c6cccc(F)c6)cncc5[nH]4)c3c2)c1	inactive: 3.03	active: 22.7	active: 9.85
Cc1ccc2c(N3CCN(CCc4cccc(N5CCNC5=O)c4)CC3)cccc2n1	inactive: -2.2	inactive: -0.402	inactive: -1.15
O=C(COc1ccc(Cl)cc1)N1CCN(Cc2ccc3c(c2)OCO3)CC1	inactive: -2.01	inactive: -1.49	inactive: -0.167
Cc1cccc(C)c1NC(=O)C(C)N (configuration not stated)	inactive: -0.431	–	inactive: -0.507
Cc1cccc(C)c1NC(=O)C(C)N (configuration not stated) [tocainide]	–	inactive: 1.21	–
CCC(C)NCC(=O)Nc1c(C)cccc1Cl (configuration not stated)	inactive: 0.128	inactive: 0.173	inactive: -0.353
COc1ccc2c(c1)c1oc(C(=O)Nc3nnn[nH]3)c(OC)c1n2-c1ccccc1	inactive: -0.272	inactive: 2.92	inactive: -1.35
CC1=CCC(C(=O)N(c2cc(C#CC(C)(C)C)sc2C(=O)O)C2CCC(O)(COC3CCOC3)CC2)CC1 (configuration not stated) [Radalbuvir]	inactive: -0.918	inactive: 0.167	inactive: 1.39
CC(CO)NC(=O)c1cccc(/C=C\CCCC(=O)N(C)C)c1 (configuration not stated)	inactive: -0.265	inactive: 0.3	inactive: 2.15
CC(C)CC(NC(=O)[C@@H](Cc1ccc2ccccc2c1)NC(=O)C(Cc1ccc(O)cc1)NC(=O)C(CO)NC(=O)C(Cc1c[nH]c2ccccc12)NC(=O)C(CC1C=NC=N1)NC(=O)C1CCC(=O)N1)C(=O)NC(CCCNC(=N)N)C(=O)N1CCCC1C(=O)NCC(N)=O (some centres not stated) [nafarelin]	inactive: -0.915	inactive: -1.47	inactive: 0.272
Oc1ccc(-c2c(-c3ccccc3)nn3c(C(F)(F)F)cc(C(F)(F)F)nc23)cc1	inactive: -0.395	inactive: 0.351	inactive: 1.89
CC(C)CCCC(C)NCCC(C)C (configuration not stated)	inactive: -0.749	inactive: -1.31	inactive: 1.64
CC(C)(F)CC(NC(c1ccc(-c2ccc(C(O)C(F)F)cc2)cc1)C(F)(F)F)C(=O)NC1(C#N)CC1 (configuration not stated)	inactive: -2.33	inactive: -0.602	inactive: 1.75
CC(C)(CO)[C@@H](O)C(=O)NCCC(=O)NCCSSCCNC(=O)CCNC(=O)[C@H](O)C(C)(C)CO [Pantethine]	inactive: -0.884	inactive: -0.752	inactive: 1.12
Cc1nc(N)ccc1CNC(=O)Cn1c(C)ccc(NS(=O)(=O)Cc2ccccc2)c1=O	inactive: -0.819	inactive: -0.712	inactive: 0.13
CCCN(CCC)C(=O)C(CCC(=O)O)NC(=O)c1ccccc1 (configuration not stated) [proglumide]	inactive: -1	inactive: -1.28	inactive: 1.12
CC1(C)O[C@@H]2C[C@H]3[C@@H]4CC[C@H]5CC(=O)CC[C@]5(C)[C@@]4(F)[C@@H](O)C[C@]3(C)[C@]2(C(=O)CO)O1	inactive: -0.667	inactive: 0.809	inactive: 2.43
c1ccc(N2CCN(Cc3nc4ccccc4[nH]3)CC2)nc1	active: 5.42	inactive: 0.314	inactive: -1.51
CC(C)C[C@H](NC(=O)[C@@H](COC(C)(C)C)NC(=O)[C@H](Cc1ccc(O)cc1)NC(=O)[C@H](CO)NC(=O)[C@H](Cc1c[nH]c2ccccc12)NC(=O)[C@H](Cc1cnc[nH]1)NC(=O)[C@@H]1CCC(=O)N1)C(=O)N[C@@H](CCCNC(=N)N)C(=O)N1CCC[C@H]1C(=O)NNC(N)=O [Goserelin]	inactive: -0.649	inactive: -0.663	inactive: 0.0422
O=C(O[C@@H]1Cc2c(O)cc(O)cc2O[C@@H]1c1ccc(O)c(O)c1)c1cc(O)c(O)c(O)c1 [(-)-Epicatechin gallate]	inactive: -1.71	inactive: -1.48	inactive: -1.96
N[C@@H](CCC(=O)N[C@@H](CSN=O)C(=O)NCC(=O)O)C(=O)O [S-Nitrosoglutathione]	inactive: -1.47	inactive: -0.738	inactive: 3.39

Structure (SMILES)	TEAD-luciferase reporter activity (compound concentration: 200 nM)	TEAD-luciferase reporter activity (compound concentration: 2 uM)	TEAD-luciferase reporter activity (compound concentration: 10 uM)
Cc1cc(-c2ncc(CC(=O)Nc3ccc(-c4cnccn4)cn3)cc2C)ccn1	inactive: 2	inactive: -0.271	inactive: -2.87
O=C(O)Cc1csc(SCC(=O)NC[C@H]2CN(Cc3ccc(Cl)c(Cl)c3)CCO2)n1	inactive: -0.151	inactive: -1.51	inactive: 0.0299
CC(=O)O[C@H]1Cc2ccccc2N(C(N)=O)c2ccccc21 [Eslicarbazepine acetate]	inactive: -1.11	inactive: -0.0436	inactive: 0.719
Nc1ccc(S(=O)(=O)Nc2ccc(S(N)(=O)=O)cc2)cc1	inactive: 0.321	inactive: -0.829	inactive: -0.268
O=C1C[C@@]2(C(=O)N1)C(=O)N(Cc1ccc(Br)cc1F)C(=O)c1cccn12 [Ranirestat]	–	inactive: 0.379	–
O=C1C[C@@]2(C(=O)N1)C(=O)N(Cc1ccc(Br)cc1F)C(=O)c1cccn12 [ranirestat]	inactive: -0.7	inactive: -1.54	inactive: 1.02
NC(=O)c1cccc2cn(-c3ccc([C@@H]4CCCNC4)cc3)nc12 [niraparib]	inactive: 0.22	inactive: -2.21	inactive: -1.28
Cc1cc(C)cc(-c2ccc(CN3CCCC3C(=O)NCc3ccc4c(c3)OCO4)cc2)c1 (configuration not stated)	active: 12.7	–	inactive: 3.4
COC(=O)[C@@H]1NC(=O)[C@H]2NC(=O)[C@H](NC(=O)[C@@H]3NC(=O)[C@H]4NC(=O)[C@H](NC(=O)[C@H](N)c5ccc(O)c(c5)Oc5cc4cc(O)c5C)[C@H](O)c4ccc(cc4)Oc4cc3cc(c4O[C@@H]3O[C@H](CO[C@@H]4O[C@@H](C)[C@H](O)[C@@H](O)[C@H]4O)[C@@H](O)[C@H](O)[C@H]3O[C@H]3O[C@H](CO)[C@@H](O)[C@H](O)[C@@H]3OC3O[C@H](CO)[C@@H](O)[C@@H]3O)Oc3ccc(cc3)[C@H]2O[C@@H]2C[C@@H](N)[C@@H](O)[C@H](C)O2)c2ccc(O)c(c2)-c2c(O[C@@H]3O[C@H](CO)[C@@H](O)[C@H](O)[C@@H]3O)cc(O)cc21 (some centres not stated) [methyl ester of ristocetin]	inactive: -1.17	inactive: -1.57	inactive: 0.847
CNC(C)=O [N-methylacetamide]	inactive: 2.87	inactive: -0.32	inactive: 0.303
CCC(=O)c1ccc2c(c1)N(CCCN1CCN(CCO)CC1)c1ccccc1S2	inactive: -0.725	inactive: 0.459	inactive: -1.09
COc1ccc(-c2ccc3ncnc(Nc4ccc(-n5cncn5)cc4)c3c2)cc1OC	inactive: -0.184	inactive: -0.768	inactive: -1.07
CCCCCCCCCC(=O)OCCN1CCN(CC/C=C2\c3ccccc3Sc3ccc(Cl)cc32)CC1 [Zuclopenthixol decanoate]	inactive: -0.183	inactive: -2.09	inactive: -0.574
CCC(C)C(=O)OC1CC(O)C=C2C=CC(C)C(CCC(O)CC(O)CC(=O)O)C21 (configuration not stated) [pravastatin]	inactive: -1.1	inactive: -1.48	inactive: 3.93
O=C(O)c1cc(O)c2c(c1)C(=O)c1cccc(O)c1C2=O [Rheinic acid]	inactive: -0.554	inactive: -0.913	inactive: 0.277
Cc1c(CN(C)C(=O)/C=C/c2cnc3c(c2)CCC(=O)N3)oc2ccccc12 [Debio-1452]	–	inactive: -1.29	–
Cc1c(CN(C)C(=O)/C=C/c2cnc3c(c2)CCC(=O)N3)oc2ccccc12	inactive: 2.56	–	inactive: -0.892
CC(C)C[C@@H](C(=O)N[C@@H](Cc1ccc(OCc2ccccc2)cc1)C(=O)NC(C)(C)C)N(C)Cc1ccc(C(C)(C)C)cc1	inactive: -0.582	inactive: -0.0298	inactive: 3.06
O=C(CCCCC1CCCCC1)N1CCC(c2cnc[nH]2)CC1	inactive: 2.91	inactive: 0.362	inactive: 0.845
CCOC(=O)c1cn(C2CC2)c2c(OC)c(N3CCC(=O)CC3)c(F)cc2c1=O	inactive: -0.516	inactive: 0.292	inactive: -0.123
CCCCN(CCCC)CC(O)c1cc(Cl)cc2c1-c1ccc(Cl)cc1C2=Cc1ccc(Cl)cc1 (configuration not stated) [Lumefantrine]	inactive: -2.16	inactive: -0.628	inactive: 1.49
CCc1ccc(C(=O)C(C)CN2CCCCC2)cc1 (configuration not stated) [Eperisone hydrochloride]	inactive: -0.435	inactive: 1.32	inactive: 0.0948
N[C@@H](C(=O)N[C@@H]1C(=O)N2C(C(=O)O)=C(Cl)CC[C@H]12)c1ccccc1 [loracarbef]	inactive: -0.514	inactive: -1.66	inactive: 2.8
O=C(CN1C(=O)c2ccccc2S1(=O)=O)Nc1ccc(O)cc1	inactive: -0.661	inactive: -0.817	inactive: 2.33

Given in markdown: part of the list above

| Structure (SMILES) | TEAD-luciferase reporter activity (compound concentration: 200 nM) | TEAD-luciferase reporter activity (compound concentration: 2 uM) | TEAD-luciferase reporter activity (compound concentration: 10 uM) |
| --- | --- | --- | --- |
| O=C1C[C@@]2(C(=O)N1)C(=O)N(Cc1ccc(Br)cc1F)C(=O)c1cccn12 [Ranirestat] | – | inactive: 0.379 | – |
| O=C1C[C@@]2(C(=O)N1)C(=O)N(Cc1ccc(Br)cc1F)C(=O)c1cccn12 [ranirestat] | inactive: -0.7 | inactive: -1.54 | inactive: 1.02 |
| NC(=O)c1cccc2cn(-c3ccc([C@@H]4CCCNC4)cc3)nc12 [niraparib] | inactive: 0.22 | inactive: -2.21 | inactive: -1.28 |
| Cc1cc(C)cc(-c2ccc(CN3CCCC3C(=O)NCc3ccc4c(c3)OCO4)cc2)c1 (configuration not stated) | active: 12.7 | – | inactive: 3.4 |
| COC(=O)[C@@H]1NC(=O)[C@H]2NC(=O)[C@H](NC(=O)[C@@H]3NC(=O)[C@H]4NC(=O)[C@H](NC(=O)[C@H](N)c5ccc(O)c(c5)Oc5cc4cc(O)c5C)[C@H](O)c4ccc(cc4)Oc4cc3cc(c4O[C@@H]3O[C@H](CO[C@@H]4O[C@@H](C)[C@H](O)[C@@H](O)[C@H]4O)[C@@H](O)[C@H](O)[C@H]3O[C@H]3O[C@H](CO)[C@@H](O)[C@H](O)[C@@H]3OC3O[C@H](CO)[C@@H](O)[C@@H]3O)Oc3ccc(cc3)[C@H]2O[C@@H]2C[C@@H](N)[C@@H](O)[C@H](C)O2)c2ccc(O)c(c2)-c2c(O[C@@H]3O[C@H](CO)[C@@H](O)[C@H](O)[C@@H]3O)cc(O)cc21 (some centres not stated) [methyl ester of ristocetin] | inactive: -1.17 | inactive: -1.57 | inactive: 0.847 |
| CNC(C)=O [N-methylacetamide] | inactive: 2.87 | inactive: -0.32 | inactive: 0.303 |
| CCC(=O)c1ccc2c(c1)N(CCCN1CCN(CCO)CC1)c1ccccc1S2 | inactive: -0.725 | inactive: 0.459 | inactive: -1.09 |
| COc1ccc(-c2ccc3ncnc(Nc4ccc(-n5cncn5)cc4)c3c2)cc1OC | inactive: -0.184 | inactive: -0.768 | inactive: -1.07 |
| CCCCCCCCCC(=O)OCCN1CCN(CC/C=C2\c3ccccc3Sc3ccc(Cl)cc32)CC1 [Zuclopenthixol decanoate] | inactive: -0.183 | inactive: -2.09 | inactive: -0.574 |
| CCC(C)C(=O)OC1CC(O)C=C2C=CC(C)C(CCC(O)CC(O)CC(=O)O)C21 (configuration not stated) [pravastatin] | inactive: -1.1 | inactive: -1.48 | inactive: 3.93 |
| O=C(O)c1cc(O)c2c(c1)C(=O)c1cccc(O)c1C2=O [Rheinic acid] | inactive: -0.554 | inactive: -0.913 | inactive: 0.277 |
| Cc1c(CN(C)C(=O)/C=C/c2cnc3c(c2)CCC(=O)N3)oc2ccccc12 [Debio-1452] | – | inactive: -1.29 | – |

Source: the supplement of paper PMC10735217
